Consider one substance from patent publication US20040072319A1, “Molecules that modulate ubiquintin-dependent proteolysis and methods for identifying same” (priority 2003, published 2004).

Protein sequences, listed by entry. Tags and fused reporters are not part of them. Lines headed by an entry give the natural chain unless they say otherwise; changes in a name come on top.
UniProt P38634: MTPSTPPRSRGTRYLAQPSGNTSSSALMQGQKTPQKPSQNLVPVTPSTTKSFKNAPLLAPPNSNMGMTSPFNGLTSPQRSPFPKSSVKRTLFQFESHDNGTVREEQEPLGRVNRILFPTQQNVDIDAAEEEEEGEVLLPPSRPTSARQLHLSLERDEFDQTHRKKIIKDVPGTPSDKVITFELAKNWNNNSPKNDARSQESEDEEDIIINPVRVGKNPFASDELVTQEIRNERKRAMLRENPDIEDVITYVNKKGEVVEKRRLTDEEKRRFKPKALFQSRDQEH

Results are given in words; binding and its absence hold for the method and conditions named. Some entries that bind do so weakly or less than the wild type.

The test has as its target T1, Cdc4 (yeast F-box protein, recombinant, expressed in baculovirus-infected insect cells) (yeast) (UniProt P07834).
T1 sequence (looked up): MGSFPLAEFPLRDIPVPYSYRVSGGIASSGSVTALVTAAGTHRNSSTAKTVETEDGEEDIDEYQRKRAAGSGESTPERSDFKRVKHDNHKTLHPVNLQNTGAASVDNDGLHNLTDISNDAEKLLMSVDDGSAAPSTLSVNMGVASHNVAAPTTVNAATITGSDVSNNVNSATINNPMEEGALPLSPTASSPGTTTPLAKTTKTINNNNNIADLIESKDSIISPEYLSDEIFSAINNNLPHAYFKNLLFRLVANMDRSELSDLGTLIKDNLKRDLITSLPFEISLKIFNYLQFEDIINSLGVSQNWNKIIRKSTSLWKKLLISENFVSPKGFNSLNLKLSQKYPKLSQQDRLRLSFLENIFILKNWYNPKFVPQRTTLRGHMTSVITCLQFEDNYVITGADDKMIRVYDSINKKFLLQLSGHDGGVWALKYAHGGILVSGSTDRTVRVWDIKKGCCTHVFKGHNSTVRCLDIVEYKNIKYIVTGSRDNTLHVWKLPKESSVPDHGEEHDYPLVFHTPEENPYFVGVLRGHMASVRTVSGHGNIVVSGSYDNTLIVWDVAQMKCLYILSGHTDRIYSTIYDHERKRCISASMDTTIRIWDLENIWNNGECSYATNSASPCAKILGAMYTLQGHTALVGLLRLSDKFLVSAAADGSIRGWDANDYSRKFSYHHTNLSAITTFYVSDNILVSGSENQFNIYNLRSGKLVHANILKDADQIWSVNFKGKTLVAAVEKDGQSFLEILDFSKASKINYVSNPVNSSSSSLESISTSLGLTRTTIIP
Kind of test: capture of phosphorylated Gst-Sic1 on Cdc4^FLAG resin, anti-Sic1 blot.

Regarding “Sic1 4m (Sic1^9m with T2, T5, T33, T45 and S76 restored), Gst fusion (from UniProt P38634 1-284)”, the binding entry is “binds”.
